Among all 3,000 compounds or so, about 1,600 (53%) were called active. So high a share suggests a set chosen from earlier hits. Inconclusive results, whose numbers are uncertain, are shown with a selection of clear calls.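 Rule for the calls: active = Flux at 10 µM at least 3 SD below or above vehicle control mean in one or both replicates; inconclusive = no clear call, values can overlap the other calls; inactive = the rest.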
Molecular target: ATP-sensitive inward rectifier potassium channel 1 (Homo sapiens) (UniProt P48048)
Test: ROMK channel modulator hit retest, confirmation, cell-based, thallium flux, duplicate, resupplied hits (AID 1917)
Settings: fluorescence ratio, at 10 µM, hits give low values

The chains behind the UniProt entries cited, without tags or fusion partners. Where a name states a change or a piece, a line headed by the entry shows the natural chain unless it says otherwise.
UniProt P48048: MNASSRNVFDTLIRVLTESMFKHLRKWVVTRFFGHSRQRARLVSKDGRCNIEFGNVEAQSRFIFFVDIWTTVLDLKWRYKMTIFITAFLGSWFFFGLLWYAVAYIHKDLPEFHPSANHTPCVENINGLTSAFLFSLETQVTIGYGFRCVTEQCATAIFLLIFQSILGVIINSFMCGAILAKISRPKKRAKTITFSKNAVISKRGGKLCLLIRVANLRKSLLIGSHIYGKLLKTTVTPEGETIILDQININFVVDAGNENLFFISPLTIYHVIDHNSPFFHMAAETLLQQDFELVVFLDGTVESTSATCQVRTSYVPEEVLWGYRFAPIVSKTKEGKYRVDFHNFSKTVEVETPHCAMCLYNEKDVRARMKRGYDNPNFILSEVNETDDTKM

Structure (SMILES) | normalized thallium flux (F/F0 slope)
NC(=O)Nc1cccc(C(F)(F)F)c1 | inactive: 0.0825
CCOC(=O)c1c(-n2c(C)cc(C=C3C(=O)NC(=O)NC3=O)c2C)sc2c1CCCC2 | inconclusive: 0.074
CC(C)NC(C)C(=O)C12CC3CC(CC(C3)C1)C2 (stereo not given) | inconclusive: 0.0694
C=C(COC(=O)CCC(=O)O)CC1CC(O)[C@]2(C)OC3CC4OC5C[C@]6(C)O[C@]7(C)CCC8OC9C[C@]%10(C)OC%11C(C)=CC(=O)OC%11CC%10OC9C[C@@H](C)C8OC7CC6O[C@]5(C)C/C=C\C4OC3CC2O1 (stereo not given in full) | inactive: 0.0806
CN1CCc2nc3sc(C#N)c(N)c3c(-c3cccs3)c2C1 | inconclusive: 0.0968
OC(COCc1ccc(Cl)cc1)CN1CC=C(c2ccccc2)CC1 (stereo not given) | active: 0.0602
O=c1[nH]c(=O)n(Cc2ccccc2Cl)c(O)c1/C=C1/C=CC=N1 | inconclusive: 0.0709
O=Cc1c(C(=O)O)n(Cc2ccc(Cl)cc2)c2ccccc12 | active: 0.0525
CCNC(=O)C1OC(n2cnc3c(N)ncnc32)C(O)C1O (stereo not given) | inconclusive: 0.0946
CC12CN3CCN(CC(C3)C1O)C2 (stereo not given) | inactive: 0.0767
CNC(=O)Nc1ccc(C(=O)N/N=C\C23CC[C@@H](O)CC2(O)CC[C@@H]2[C@@H]3CCC3(C)C(C4=CC(=O)OC4)CCC23O)cc1 (stereo not given in full) | inconclusive: 0.0707
CCOP(=S)(OCC)N1CCOCCOCCN(P(=S)(OCC)OCC)CCOCCOCC1 | inactive: 0.0761
CCN(CC)c1ccc(CNCCc2ccc(F)cc2)cc1 | active: 0.0542
CCCC(C)n1[nH]c(=O)c2c1NC(=O)CSC2c1ccc(OC)cc1 (stereo not given) | inconclusive: 0.0706
O=C1N(c2ccccc2)C(c2cccnc2)N2CCCN12 (stereo not given) | inactive: 0.0872
CC(C)Sc1nnc([C@@H](N)Cc2ccccc2)o1 | inactive: 0.0781
COc1cc(/C=C/[N+](=O)[O-])ccc1O | active: 0.051
COC1CC(OC2CCC3(C)C(CCC4C3CCC3(C)C(C5=CC(=O)OC5)C(OC(C)=O)CC43O)C2)OC(C)C1OC1OC(COC2OC(CO)C(O)C(O)C2O)C(O)C(O)C1O (stereo not given) | inconclusive: 0.0665
CCOC(=O)c1cc2c(cn1)[nH]c1ccccc12 | inconclusive: 0.0705
O=C1NC(=O)C(=Cc2cn(CCOc3ccc4c(c3)OCO4)c3ccccc23)C(=O)N1 | inconclusive: 0.0651

Some of the entries so far, in markdown:

| Structure (SMILES) | normalized thallium flux (F/F0 slope) |
| --- | --- |
| CCCC(C)n1[nH]c(=O)c2c1NC(=O)CSC2c1ccc(OC)cc1 (stereo not given) | inconclusive: 0.0706 |
| O=C1N(c2ccccc2)C(c2cccnc2)N2CCCN12 (stereo not given) | inactive: 0.0872 |

— PubChem BioAssay AID1917 (Vanderbilt High Throughput Screening Facility, 2009)
